# From PubChem BioAssay AID504834 (National Center for Advancing Translational Sciences (NCATS), 2011)
# About 22,000 (6.9%) of roughly 320,000 compounds were called active. Inconclusive results, whose numbers are uncertain, are shown with a selection of clear calls. The call rests on the fitted dose curve; in most records, active means well fitted inhibition curve with a large enough effect; inconclusive means small, poorly fitted or top-dose-only effect, or another doubt; inactive means no such curve, though single readings can be large or run the other way. Potencies of inconclusive entries are doubtful fits and often do not repeat.
# Assay: Primary qHTS for delayed death inhibitors of the malarial parasite plastid, 96 hour incubation
# Details: P. falciparum luciferase reporter growth; series mostly up to 28.7 µM
# Method in brief: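 Two parasite generations (96 h, 37 C, 5% CO2) of compound exposure in infected erythrocytes (0.05% parasitemia, 2% hematocrit). Luciferase-reporter P. falciparum; decreased luminescence indicates inhibited growth, aimed at apicoplast-acting delayed death.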
# Potency means the concentration at half of the fitted maximal effect.
row,Structure (SMILES),Potency
1,COc1ccc(CCn2c(=N)c(C(=O)NCC3CCCO3)cc3c(=O)n4cccc(C)c4nc32)cc1 (stereo not given),"inconclusive: 2.08 µM [inhibitor, partial curve, poor fit]"
2,COc1ccc(/C=N/NC(=O)c2nc(-c3ccccc3)cc(-c3ccccc3)n2)cc1,inactive
3,Cc1ccc(S(=O)(=O)N2CCC(C(=O)OCC(=O)N3CCCC3=O)CC2)cc1C,inactive
4,Cc1cccc(C)c1NC(=O)Cc1cccs1,"inconclusive: 18.5 µM [inhibitor, single point]"
5,O=C(O)CN=C(NS(=O)(=O)c1ccc(Cl)cc1)c1ccc(F)cc1,"inconclusive: 0.233 µM [inhibitor, full curve, poor fit]"
6,CCC(C)C1NC(=O)C(C(C)=O)=C1O (stereo not given),"inconclusive: 18.5 µM [inhibitor, partial curve, poor fit]"
7,Cc1ccc(-c2nnn(CC(=O)N3C(C)CCCC3C)n2)cc1 (stereo not given),"inconclusive: 18.5 µM [inhibitor, single point]"
8,O=C(Cc1cccs1)Nc1cc(SCCO)cc([N+](=O)[O-])c1,inactive
9,CCc1ccc(NC(=O)c2cc3c(C)nc4ccccc4c3o2)cc1,"inconclusive: 5.22 µM [inhibitor, single point]"
10,CSCC[C@@H](CO)NC(=O)c1ccc2nc(C3CCCCC3)oc2c1,"inconclusive: 18.5 µM [inhibitor, single point]"
11,CC(=O)c1ccc(OCCCC(=O)NNC(=O)c2ccccn2)cc1,"inconclusive: 16.5 µM [inhibitor, single point]"
12,Cc1cc(C)n(-c2cc(N3CCN(S(=O)(=O)c4ccc5ccccc5c4)CC3)ccc2[N+](=O)[O-])n1,"inconclusive: 18.5 µM [inhibitor, partial curve, poor fit]"
13,COCCCNC(=S)N1CCN(c2nc(-c3ccc(F)cc3)cs2)CC1,"inconclusive: 18.5 µM [inhibitor, single point]"
14,CS(=O)(=O)N1CCC(C(=O)Nc2ccc(F)cc2)CC1,"inconclusive: 18.5 µM [inhibitor, single point]"
15,CCS(=O)(=O)Nc1ccc(-c2cc(-c3ccccc3)c3cc(C)ccc3n2)cc1,"inconclusive: 4.15 µM [inhibitor, partial curve, poor fit]"
16,O=C(CN1CCC(C(=O)c2cccc(Cl)c2)CC1)Nc1ccc(C(=O)O)cc1,inactive
17,Nc1nnnn1/N=C/c1ccccn1,active: 6.57 µM
18,Cc1ccc(CNC(=O)C2CCCN(Cc3cnn(-c4ccccc4)c3-n3cccc3)C2)cc1 (stereo not given),"inconclusive: 0.0029 µM [inhibitor, full curve, poor fit]"
19,O=C(Cn1ncc2c3ccccc3n(Cc3ccc(Cl)cc3)c2c1=O)NCCCN1CCCC1=O,active: 13.1 µM
20,COCCNC(=S)N/N=C/c1c2ccccc2cc2ccccc12,active: 3.7 µM
21,COCn1c(-c2ccc(OC)cc2)nc2ccccc21,"inconclusive: 6.57 µM [inhibitor, partial curve]"
22,Cc1ccc2c(N)c(C(=O)N(c3ccccc3)c3ccccc3)sc2n1,"inconclusive: 10.4 µM [inhibitor, single point]"
23,Fc1cccc(Cc2noc(CN3CCSCC3)n2)c1,"inconclusive: 13.1 µM [inhibitor, single point]"

# A different layout for four compounds above:
row	Structure (SMILES)	Potency
9	CCc1ccc(NC(=O)c2cc3c(C)nc4ccccc4c3o2)cc1	inconclusive: 5.22 µM [inhibitor, single point]
10	CSCC[C@@H](CO)NC(=O)c1ccc2nc(C3CCCCC3)oc2c1	inconclusive: 18.5 µM [inhibitor, single point]
11	CC(=O)c1ccc(OCCCC(=O)NNC(=O)c2ccccn2)cc1	inconclusive: 16.5 µM [inhibitor, single point]
12	Cc1cc(C)n(-c2cc(N3CCN(S(=O)(=O)c4ccc5ccccc5c4)CC3)ccc2[N+](=O)[O-])n1	inconclusive: 18.5 µM [inhibitor, partial curve, poor fit]

# (cont.)

row,Structure (SMILES),Potency
1,N#Cc1nnn(-c2ccc(Cl)cc2)c1N,inactive
2,C=C(C)C(=O)O[C@H]1C/C(C)=C\C(=O)/C=C(\C)[C@H](O)[C@@H]2OC(=O)C(=C)[C@@H]21,"inconclusive: 5.22 µM [inhibitor, partial curve, poor fit]"
3,CC(C)(C)c1ccc(COC(=O)Nc2ccc(F)cc2)cc1,"inconclusive: 9.28 µM [inhibitor, partial curve]"
4,CCC(Cc1ccccc1)NCc1c(C(=O)O)c(C)n(Cc2ccccc2)c1C (stereo not given),"inconclusive: 18.5 µM [inhibitor, single point]"
5,O=C(Cn1nnc(-c2ccccc2)n1)Nc1cccc(S(=O)(=O)N2CCOCC2)c1,inactive
6,CCOC(=O)CN1C(=O)C(O)(CC(=O)c2cccc(OC)c2)c2ccccc21 (stereo not given),"inconclusive: 18.5 µM [inhibitor, single point]"
7,Nc1cc(=O)[nH]c(SCC(=O)N2CCCc3ccccc32)n1,"inconclusive: 10.4 µM [inhibitor, partial curve, poor fit]"
8,CCc1cc(C(=O)N2CCCC(CCC(=O)N3CCN(c4ccccn4)CC3)C2)no1 (stereo not given),inactive
9,CC1(C)CC(=O)C(C=NCC2CCN(C(=S)Nc3cccc(Cl)c3)CC2)=C(O)C1,inactive
10,NC(=O)NNc1ccccc1,inactive
11,Nc1cc(=O)[nH]c(SCC(=O)N2N=C(c3ccc4ccccc4c3)CC2c2ccccc2)n1 (stereo not given),"inconclusive: 8.28 µM [inhibitor, partial curve]"
12,CCOc1cccc(-c2c(C(=O)N/N=C(\C)c3ccccn3)nnn2-c2nonc2N)c1,active: 3.7 µM
13,CCC(C)(C)NC(=O)C(c1ccc(F)cc1)N(Cc1cccs1)C(=O)c1cnccn1 (stereo not given),"inconclusive: 3.7 µM [inhibitor, full curve]"
14,O=C(CN(C(=O)c1nsc(Cl)c1Cl)c1cccc(F)c1)NC1CCCC1,inactive
15,O=S(=O)(c1ccccc1)N(CC1CO1)c1cc(Cl)ccc1Cl (stereo not given),inactive
16,CCOc1cc(/C=C2\COc3ccccc3C2=O)ccc1OCC(=O)N(C)C,"inconclusive: 8.28 µM [inhibitor, partial curve]"
17,CCN(Cc1ccccc1)C(=O)Cn1cc2c(n1)CCCC2,inactive
18,Cc1ccc(OCCCCc2c(C)n[nH]c2C)cc1,"inconclusive: 18.5 µM [inhibitor, single point]"
19,COc1ccc(C(=O)N(C)C(C)c2ccon2)cc1OC1CCN(C(C)C)CC1 (stereo not given),"inconclusive: 18.5 µM [inhibitor, single point]"
20,O=C(c1ccc([N+](=O)[O-])s1)N1CCN(c2ccccn2)CC1,"inconclusive: 5.86 µM [inhibitor, partial curve, poor fit]"
21,Cc1ccc(OCC(=O)N2CCc3ccccc3C2)c(C)c1,inactive
22,Cc1ccc(-c2nnn(CC(=O)N(c3ccccc3)C(C(=O)NCC3CCCO3)c3ccc(Cl)cc3)n2)cc1 (stereo not given),active: 8.28 µM
